One data set can be described thus: in vivo. As to conditions: printed under the reference substance in Table III.
A further data set deals with gastric acid secretion. It counts as in vivo. Conditions: 50 mg/kg p.o.; rats. The text has this:
The influence of the compounds of the invention on the gastric acid secretion was studied on rats weighing 170 to 260 g according to Shay [Gastroenterology, 5, 43 (1945)].

For `CN1[C@@H]2CC[C@H]1C[C@@H](OC(=O)C(CO)c1ccccc1)C2` (some centres unmarked) [atropine, reference compound], the median lethal dose (LD50) in the data set “in vivo” was 200 mg/kg. Also, the “Inhibition of gastric acid secretion, percentage” value in the data set on gastric acid secretion is given as “about 45 percentage”.

Usually LD50 stands for the dose expected to kill half of the subjects tested. A lower LD50 goes with a more toxic substance.

These data come from patent US4303660A, “Pyrazolo[1,5-c]quinazoline derivatives and analgesic compositions containing them” (priority 1979, dated 1981).
